{"source": "PubChem BioAssay AID463116", "about": "(University of Pittsburgh Molecular Library Screening Center, 2010)", "note": "Some of the results follow. These are further read-outs of the screen, such as a control signal, another cell line or another target. No call is given for them. Compounds called inactive in the main read-out are mostly missing here.", "data": [{"assay": "dynein cargo transport inhibitors, GR-EGFP translocation, confirmation, imaging, high-content imaging, GR-EGFP cells (AID 463116)", "settings": "3617.4 GR-EGFP nuclear translocation imaging, dexamethasone-induced; measured here: cell count per field; at 20 µM", "values": [{"smiles": "CC[n+]1c(/C=C/C=C/N(C(C)=O)c2ccccc2)sc2cc(OC)ccc21", "z-score": -0.374}, {"smiles": "COc1cccc(C2CC(C(F)(F)F)n3nc(C(=O)NCc4cccnc4)cc3N2)c1", "note": "(stereo not given)", "z-score": -0.0577}, {"smiles": "CCN1C/C(=C/c2ccc(OC)c(O)c2)C(=O)/C(=C/c2ccc(OC)c(O)c2)C1", "z-score": 0.342}, {"smiles": "CCOC(=O)CCSc1nc(C)cc(C(F)(F)F)c1C#N", "z-score": 0.218}, {"smiles": "Cc1ccc(-c2csc(NC(=O)Cc3ccc(F)cc3)n2)o1", "z-score": 0.226}, {"smiles": "CCNc1ccc(Br)cc(C(=O)/C=C/c2ccc(Cl)cc2Cl)c1=O", "z-score": 0.277}, {"smiles": "O=C(c1coc(=O)c(Br)c1)N1CCC(C(O)(c2ccccc2)c2ccccc2)CC1", "z-score": 0.845}, {"smiles": "CC(=O)Nc1cccc(C(=O)/C=C/c2ccc(F)cc2)c1", "z-score": 0.222}, {"smiles": "COc1ccc2c(c1)c1ccc3c(c1n2C)C(=O)C=CC3=O", "z-score": 0.191}, {"smiles": "CCOC(=O)/C(=C\\c1cn(C)c2ccccc12)[N+](=O)[O-]", "z-score": 0.0614}, {"smiles": "CCOC(=O)c1c(NC(=O)CCl)sc(CN(C)C)c1-c1ccccc1", "z-score": 0.31}, {"smiles": "CCOCCCNC1=C(Cl)C(=O)c2ccccc2C1=O", "z-score": -0.582}, {"smiles": "CCCCc1cc(O)c(CCCC)c(O)c1", "z-score": 0.231}, {"smiles": "O=[N+]([O-])/C=C/c1cn(Cc2ccc(F)cc2)c2ccccc12", "z-score": -0.341}, {"smiles": "O=C(CN1CCN(S(=O)(=O)c2ccccc2[N+](=O)[O-])CC1)NC(=O)NCc1ccco1", "z-score": 0.0215}, {"smiles": "COCCCNc1nc2c(-c3ccc(Cl)cc3)nnn2c2ccccc12", "z-score": 0.00439}, {"smiles": "Clc1ncnc2scc(-c3ccc(Br)cc3)c12", "z-score": 0.679}, {"smiles": "CC(C)CN1C(=O)/C(=C/c2c(N3CCc4ccccc4C3)nc3ccccn3c2=O)SC1=S", "z-score": 0.517}, {"smiles": "CNc1ccc(/C=C2\\CSc3ccccc3C2=O)cc1[N+](=O)[O-]", "z-score": 0.818}, {"smiles": "CN1CC=C2C(C#N)=C(N)C(C#N)(C#N)C(Cc3ccccc3)C2C1", "note": "(stereo not given)", "z-score": -0.0979}, {"smiles": "CCN1CC=C2C(C#N)=C(N)C(C#N)(C#N)C(CCc3ccccc3)C2C1", "note": "(stereo not given)", "z-score": 0.793}, {"smiles": "Cc1cc(C)cc(OC(=O)CS(=O)c2ccc(C(F)(F)F)cc2[N+](=O)[O-])c1", "note": "(stereo not given)", "z-score": -0.638}, {"smiles": "CCCN1C(=O)/C(=C/c2c(NCCCOC(C)C)nc3c(C)cccn3c2=O)SC1=S", "z-score": -0.105}, {"smiles": "Cc1ccc2nc(SCC(=O)Nc3ccc(C(N)=O)cc3)[nH]c2c1", "z-score": 0.41}, {"smiles": "N#CC(C#N)=C1C=CC=CN1/C(=C\\c1ccco1)C(=O)c1ccccc1", "z-score": 0.143}, {"smiles": "CN(C(=O)COC(=O)c1nc(Cl)c(Cl)c(Cl)c1Cl)C1CCS(=O)(=O)C1", "note": "(stereo not given)", "z-score": 0.378}, {"smiles": "COc1cc(/C=C/C(=O)c2ccc(C)c([N+](=O)[O-])c2)cc(OC)c1O", "z-score": -0.0641}, {"smiles": "Cc1nc([N+](=O)[O-])c(Br)n1CC(=O)c1cccc([N+](=O)[O-])c1", "z-score": 0.429}, {"smiles": "Cc1sc(NC(=O)c2sc3nc4c(C)cccc4cc3c2N)c(C#N)c1C", "z-score": 0.601}, {"smiles": "CCOC(=O)c1cn(-c2c(Cl)cccc2Cl)c2cc(Cl)c([N+](=O)[O-])cc2c1=O", "z-score": 0.246}, {"smiles": "Clc1ccc(-c2nnc(Sc3nc4ccccc4o3)c3ccccc23)cc1", "z-score": 0.65}, {"smiles": "N#CC(C#N)=C1C=CC=CN1/C(=C\\c1ccco1)C(=O)c1ccc(Br)cc1", "z-score": 0.476}, {"smiles": "CCCNC(=O)c1nnsc1S(=O)c1ccc(Cl)cc1", "note": "(stereo not given)", "z-score": -0.87}, {"smiles": "CCOC(=O)COc1ccc(/C=C/[N+](=O)[O-])c(OCC(=O)OCC)c1", "z-score": 0.525}, {"smiles": "CC1=CC(=Nc2c(C)n(C)n(-c3ccccc3)c2=O)C=CC1=O", "z-score": 0.551}, {"smiles": "CCNc1ccc(Br)cc(C(=O)/C=C/c2c(Cl)cccc2Cl)c1=O", "z-score": -0.403}, {"smiles": "Cc1ccccc1CS(=O)(=O)c1nnc([C@H](Cc2ccccc2)NC(=O)OC(C)(C)C)o1", "z-score": -0.405}, {"smiles": "CCC(C)(C)c1ccc(OCCCC[n+]2cccc(C)c2C)c(C(C)(C)CC)c1", "z-score": -3.88}, {"smiles": "CCOC(=O)C(=Cc1c[nH]c2ccc(S(=O)(=O)N(C)C)cc12)C(=O)OCC", "z-score": 0.236}, {"smiles": "COc1ccc(-n2nc(C(=O)c3cccs3)cc(-c3nc4ccccc4[nH]3)c2=N)cc1", "z-score": 0.699}, {"smiles": "CCn1c(SCC(=O)N2CCOCC2)nc2oc3c(Cl)cc(Cl)cc3c(=O)c2c1=O", "z-score": 0.251}, {"smiles": "CC(=O)NC(CSC(CC(=O)c1ccco1)c1ccc(C)cc1)C(=O)O", "note": "(stereo not given)", "z-score": 1.43}, {"smiles": "CC1(C)CC(=O)C2=C(C1)Oc1nc3ccccc3cc1C2C(C#N)C#N", "note": "(stereo not given)", "z-score": 0.411}, {"smiles": "CCCCNC1C(CC)C(CCC)C(C#N)(C#N)C1(C#N)C#N", "note": "(stereo not given)", "z-score": 0.227}, {"smiles": "CCOC(=O)C1=C(Cc2ccc(OC)cc2)C(=O)c2ccccc2C1=O", "z-score": 0.475}, {"smiles": "CC(=O)Oc1ccc(OC(C)=O)c(SCCCCCCl)c1", "z-score": -0.248}, {"smiles": "N#CC1=C(N)N(c2ccccc2)C(c2cccc([N+](=O)[O-])c2)C1(C#N)C#N", "note": "(stereo not given)", "z-score": 0.259}, {"smiles": "O=[N+]([O-])/C=C/c1cn(Cc2ccc(Cl)cc2)c2ccccc12", "z-score": 0.0425}, {"smiles": "COc1ccc(-c2csc3ncnc(Cl)c23)cc1", "z-score": 0.176}, {"smiles": "CSc1nnc(C)c(/C=C/Nc2ccc(C)cc2)n1", "z-score": 0.586}, {"smiles": "CC1CCN(C(=O)c2ccc3c(Cl)c4c(nc3c2)CCCC4)CC1", "z-score": 0.435}, {"smiles": "CN(C)c1ccc(/C=C2\\N=C(c3ccc(Cl)c([N+](=O)[O-])c3)NC2=O)cc1", "z-score": -0.0211}, {"smiles": "Cc1nc([N+](=O)[O-])c(Br)n1Cc1ccccc1", "z-score": 0.21}, {"smiles": "Cc1ccc(-c2csc3ncnc(Sc4nnc(CN5CCCCCC5=O)o4)c23)cc1", "z-score": -0.583}, {"smiles": "COc1cc2c(cc1OC)C(SC)=NC1(CCCC1)C2", "z-score": 0.149}, {"smiles": "COc1ccccc1-c1nnc(Sc2nc([N+](=O)[O-])nn2C)o1", "z-score": 0.832}, {"smiles": "CC(=O)OCCN(C)c1cc(SC(C)C)c2nonc2c1[N+](=O)[O-]", "z-score": -0.0884}, {"smiles": "CC(=O)OCCCNc1cc(SCc2ccco2)c2nonc2c1[N+](=O)[O-]", "z-score": 0.452}, {"smiles": "CCCNC(=O)Cn1c(=O)/c(=C\\c2ccc(-c3ccc([N+](=O)[O-])cc3)o2)s/c1=C\\C(=O)C(C)(C)C", "z-score": -0.0798}, {"smiles": "Cc1ccc(NC(=O)c2cc(N3C(=O)C=CC3=O)ccc2N2CCOCC2)cc1", "z-score": -2.44}, {"smiles": "CN1CCN(C2=C(Cl)C(=O)C(c3cnc(N4CCCCC4)s3)=C(Cl)C2=O)CC1", "z-score": -1.21}, {"smiles": "CCN(CC)C(=O)c1cc([N+](=O)[O-])cc2c1-c1ccc([N+](=O)[O-])cc1C2=C(C#N)C#N", "z-score": 0.185}, {"smiles": "CCn1c(C)c(CS(=O)(=O)c2ccccc2)[nH]c1=O", "z-score": 0.64}, {"smiles": "O=C(O)CC1CCC(=C(Cl)Cl)C1", "note": "(stereo not given)", "z-score": 0.519}, {"smiles": "O=C(O)c1ccc(C=C(c2nc3ccccc3s2)c2nc3ccccc3s2)cc1", "z-score": 0.387}, {"smiles": "N#C/C(=C/c1ccc(N2CCCCC2)o1)c1cccc(F)c1", "z-score": 0.404}, {"smiles": "COc1ccc2nc(N3CCCC3)c(C#N)cc2c1", "z-score": 0.499}, {"smiles": "COc1ccc(N(C(=O)CCl)C(C(=O)NCCc2ccccc2)c2cccs2)cc1", "note": "(stereo not given)", "z-score": 0.0122}, {"smiles": "CCCn1nc(-c2ccccc2)c2nc3ccccc3nc21", "z-score": 0.53}, {"smiles": "COc1ccc(-n2ncc(Cl)c(Cl)c2=O)cc1", "z-score": -0.22}, {"smiles": "CCOC(=O)c1c(NC(=S)N2CCOCC2)sc2c1CCN(C(=O)OCC)C2", "z-score": 0.77}, {"smiles": "Cc1ccc(C(=O)/C=C\\C(=O)c2ccc(C)cc2)cc1", "z-score": 0.618}, {"smiles": "N#Cc1c(Cl)c(Cl)c2nnc(-c3ccc(Br)cc3)n2c1Cl", "z-score": 0.28}, {"smiles": "CC(=O)Nc1cccc(C(=O)/C=C/c2cccs2)c1", "z-score": 0.833}, {"smiles": "Cc1ccc(-c2nnc(Sc3nc4ccccc4o3)c3ccccc23)cc1", "z-score": 0.00155}, {"smiles": "Clc1ccc(N=c2ssnc2Cl)nc1", "z-score": 0.187}, {"smiles": "O=C(NCc1cccnc1)/C(=C\\c1ccc(-c2ccc(Cl)c(Cl)c2)o1)S(=O)(=O)c1ccccc1", "z-score": 0.497}, {"smiles": "COc1cc(/C=C/C(=O)c2ccc(F)cc2)cc(OC)c1OC", "z-score": 0.209}, {"smiles": "O=C(/C=C/c1ccc(O)c(O)c1)c1ccccc1O", "z-score": -0.491}, {"smiles": "O=C(c1ccc(S(=O)(=O)Cc2cc(F)ccc2F)c([N+](=O)[O-])c1)N1CCCC1", "z-score": 0.17}, {"smiles": "COc1ccc(N(C(=O)CCl)C(C(=O)NC2CCCCC2)c2cccnc2)cc1", "note": "(stereo not given)", "z-score": 0.661}, {"smiles": "COc1ccc(CS(=O)(=O)/C(Cl)=C(/Cl)C(=O)Nc2ccc(OC)nc2)cc1", "z-score": -0.0772}, {"smiles": "Cc1ccc2nc(/C(C#N)=C\\c3ccc(N4CCOCC4)o3)[nH]c2c1", "z-score": 0.616}, {"smiles": "CC(C)(C)c1cc(CN(CCO)CCO)cc(C(C)(C)C)c1O", "z-score": -1.07}, {"smiles": "COC(=O)c1cc([N+](=O)[O-])c(-n2ccnc2)c([N+](=O)[O-])c1", "z-score": 0.452}, {"smiles": "O=C(/C=C/Sc1ccccc1)c1ccccc1", "z-score": 0.652}, {"smiles": "CCOC(=O)C(=Cc1ccc(-n2cncn2)cc1)C(=O)OCC", "z-score": -0.721}, {"smiles": "COc1ccc(N=C2S/C(=C\\c3ccc(N4CCOCC4)o3)C(=O)N2CCc2c[nH]c3ccccc23)cc1", "z-score": 0.568}, {"smiles": "O=c1c2ccccc2sn1-c1ccccc1", "z-score": 0.217}, {"smiles": "COc1ccc(CC(=O)n2[nH]c(=O)cc(C)c2=O)cc1OC", "z-score": -0.852}, {"smiles": "CC(C)(C)OC(=O)NCCc1nnc(S(=O)(=O)Cc2ccc(Cl)cc2Cl)o1", "z-score": 1.32}, {"smiles": "Cc1ccc(-c2nn(-c3ccccc3)cc2CO)o1", "z-score": 0.154}, {"smiles": "CC(C)Cc1nc2oc3c(Cl)ncnc3c2c2c1CCCC2", "z-score": -0.85}, {"smiles": "CCOC(=O)c1c(NC(=O)/C=C/C(=O)O)sc(C)c1-c1ccc(Cl)cc1", "z-score": 0.645}, {"smiles": "COc1ccccc1-c1cc(C(F)(F)F)nc(S(C)(=O)=O)n1", "z-score": -1.2}, {"smiles": "CS(=O)(=O)c1nc(-c2ccc(Br)cc2)cc(-c2ccccc2)c1C#N", "z-score": -0.477}, {"smiles": "O=C(CN(c1cccc(C(F)(F)F)c1)S(=O)(=O)c1ccc(Cl)c([N+](=O)[O-])c1)NCc1ccccc1Cl", "z-score": 0.245}, {"smiles": "Nc1nc(Sc2c([N+](=O)[O-])cc(C(F)(F)F)cc2[N+](=O)[O-])n[nH]1", "z-score": 0.335}, {"smiles": "Cc1cccc(C2=NC(C(F)(F)F)(C(F)(F)F)c3c(n(-c4ccc(F)cc4)c(=O)[nH]c3=O)N2)c1", "z-score": -5.54}, {"smiles": "CCc1cc(OCCCCNCc2ccccc2)ccc1Cl", "z-score": -3.73}, {"smiles": "CCOC(=O)C(=Cc1cc(=O)c(OC)co1)C(=O)OCC", "z-score": 0.82}, {"smiles": "O=C1CSC(=S)N1Cc1cccnc1", "z-score": 0.231}, {"smiles": "CN=c1scc(-c2cccs2)n1/N=C/c1ccc(O)c(O)c1O", "z-score": 0.655}, {"smiles": "COc1ccccc1C(=O)/C=C/c1ccc(N2CCCCC2)c([N+](=O)[O-])c1", "z-score": 0.00616}, {"smiles": "COc1ccccc1NS(=O)(=O)c1cc([N+](=O)[O-])ccc1N/N=C/c1c(C)[nH]c2ccccc12", "z-score": -0.0945}]}]}
